Values of other authors as cited in US6703045B2, “Composition and method for maintaining blood glucose level” (Council of Scientific & Industrial Research, priority 2001, dated 2004).

Assays:
[1] = fluconazole 100 mg daily oral for 7 days, normal volunteers
[2] = single oral 5 mg dose
[3] = patients

Cc1cnc(C(=O)NCCc2ccc(S(=O)(=O)NC(=O)NC3CCCCC3)cc2)cn1 [Glipizide, 1-cyclohexyl-3-[[p-[2-(5-methylpyrazinecarboxamido)ethyl]phenyl]sulfonyl] urea]
mean percentage increase in glipizide AUC after fluconazole [1]: 56.9% | plasma concentration after 24 hr [2]: 12.0 ng/mL | time to peak plasma conc. [2]: 1 to 3 h | incidence of allergic skin reactions [3]: about one in seventy
